Data as given in PubChem BioAssay AID1053208 (Peter MacCallum Cancer Centre, 2014).
This is an unselected part of about 17,000 deposited reagents. 788 of all reagents (4.7%) were called active. 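Calls rest on z-score classes alone; an extra cut-off of viability at most 70% of control was not applied to them.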 Entries without a mark were called inactive. Further read-outs or replicates are left out here.

Assay: 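Synthetic lethal interactions between gene loss and doxorubicin in osteosarcoma cells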 (primary screen)
System: mouse osteosarcoma cells, early-passage culture from an engineered mouse model of fibroblastic bone tumour
Reagent: siRNA pool against mouse genes, 40 nM
Duration: about 120 h (48 h before drug, then 72 h with drug)
Challenge: doxorubicin 100 nM for 72 h, roughly 30-40% inhibitory dose
Read-out: 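Viability read as ATP luminescence after 72 h of 100 nM doxorubicin or none, duplicate wells averaged, scaled to non-targeting siRNA, then expressed as robust z-scores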
Scale: viability z-score with doxorubicin: higher = more viable cells under doxorubicin; viability z-score without drug: higher = more viable cells with knock-down alone
Call rule: 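a pool counts as active when its viability z-score with doxorubicin is -2 or below and its z-score without drug lies between -2 and 2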

The first 2 records, ahead of the listing:
{"Gene":"Chst4","combined z-score class":"no change with or without drug","viability z-score with doxorubicin":0.56,"viability z-score without drug":0.84}
{"Gene":"Tph2","combined z-score class":"no change with or without drug","viability z-score with doxorubicin":0.45,"viability z-score without drug":-0.17}

Main list, from the first entry:
{"Gene":"Chst4","combined z-score class":"no change with or without drug","viability z-score with doxorubicin":0.56,"viability z-score without drug":0.84}
{"Gene":"Tph2","combined z-score class":"no change with or without drug","viability z-score with doxorubicin":0.45,"viability z-score without drug":-0.17}
{"Gene":"Ddit4l","combined z-score class":"high cell count without drug only","viability z-score with doxorubicin":1.46,"viability z-score without drug":2.53}
{"Gene":"Smtn","combined z-score class":"no change with or without drug","viability z-score with doxorubicin":-0.22,"viability z-score without drug":-0.17}
{"Gene":"Pfkfb2","combined z-score class":"no change with or without drug","viability z-score with doxorubicin":-0.9,"viability z-score without drug":-0.51}
{"Gene":"Crx","combined z-score class":"no change with or without drug","viability z-score with doxorubicin":0.22,"viability z-score without drug":0.84}
{"Gene":"Apba3","combined z-score class":"no change with or without drug","viability z-score with doxorubicin":0.9,"viability z-score without drug":0.84}
{"Gene":"Mettl24","combined z-score class":"no change with or without drug","viability z-score with doxorubicin":-0.67,"viability z-score without drug":0.34}
{"Gene":"Stat6","combined z-score class":"no change with or without drug","viability z-score with doxorubicin":0.34,"viability z-score without drug":1.18}
{"Gene":"Or52n3","combined z-score class":"no change with or without drug","viability z-score with doxorubicin":-0.79,"viability z-score without drug":-1.18}
{"Gene":"Tas2r108","combined z-score class":"no change with or without drug","viability z-score with doxorubicin":-0.9,"viability z-score without drug":1.35}
{"Gene":"Gng10","combined z-score class":"no change with or without drug","viability z-score with doxorubicin":1.35,"viability z-score without drug":1.85}
